In the M2OR odorant receptor database:
The list shows a part of the results, in another mix than the full data. The calls were merged from several studies; some rest on single wells. Some of the results follow.

Key:
Settings in all cases: stereoisomer not certain
OR2J2 = system: T1, OR2J2
T1 sequence (whole entry): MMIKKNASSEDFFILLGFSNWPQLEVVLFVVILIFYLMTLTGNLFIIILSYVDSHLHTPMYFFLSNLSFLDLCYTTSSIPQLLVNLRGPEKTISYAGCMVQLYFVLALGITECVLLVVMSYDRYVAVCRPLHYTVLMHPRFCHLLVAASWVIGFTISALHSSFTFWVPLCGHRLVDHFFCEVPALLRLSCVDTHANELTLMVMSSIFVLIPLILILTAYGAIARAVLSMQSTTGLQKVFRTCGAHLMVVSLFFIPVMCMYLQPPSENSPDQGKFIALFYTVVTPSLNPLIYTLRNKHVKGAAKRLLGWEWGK
Procedure, shortened: (§1)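 Whether a receptor–molecule pair is responsive (active) rests on the original authors' judgment that its measured signal was statistically different from baseline. Pairs without that judgment are non-responsive (inactive). Sources used varied assay methods, commonly transient luciferase assays in mammalian cell lines.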

OR2J3 (Homo sapiens) = target: T2, OR2J3 (Homo sapiens) (UniProt O76001)
T2 sequence (whole entry): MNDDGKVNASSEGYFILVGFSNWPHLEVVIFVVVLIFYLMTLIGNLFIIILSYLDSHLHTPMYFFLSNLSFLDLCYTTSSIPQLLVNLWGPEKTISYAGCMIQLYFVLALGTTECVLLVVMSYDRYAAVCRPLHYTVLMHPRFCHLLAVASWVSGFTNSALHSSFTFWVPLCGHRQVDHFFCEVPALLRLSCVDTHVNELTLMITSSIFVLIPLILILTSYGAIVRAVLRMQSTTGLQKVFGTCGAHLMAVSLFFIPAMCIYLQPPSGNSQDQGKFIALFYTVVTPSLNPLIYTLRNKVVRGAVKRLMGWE
Procedure, shortened: as §1

OR2K2 (Homo sapiens) = target: T3, OR2K2 (Homo sapiens) (UniProt Q8NGT1)
T3 sequence (whole entry): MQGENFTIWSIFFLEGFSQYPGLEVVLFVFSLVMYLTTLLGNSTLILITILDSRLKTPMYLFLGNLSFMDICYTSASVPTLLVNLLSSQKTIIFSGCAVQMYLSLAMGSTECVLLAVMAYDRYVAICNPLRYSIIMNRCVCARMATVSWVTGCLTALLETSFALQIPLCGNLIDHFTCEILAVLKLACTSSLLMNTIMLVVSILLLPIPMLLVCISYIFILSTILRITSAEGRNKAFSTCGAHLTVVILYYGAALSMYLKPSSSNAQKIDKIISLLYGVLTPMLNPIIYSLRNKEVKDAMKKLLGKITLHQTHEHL
Procedure, shortened: as §1

OR2L13 (Homo sapiens) = target: T4, OR2L13 (Homo sapiens) (UniProt Q8N349)
T4 sequence (whole entry): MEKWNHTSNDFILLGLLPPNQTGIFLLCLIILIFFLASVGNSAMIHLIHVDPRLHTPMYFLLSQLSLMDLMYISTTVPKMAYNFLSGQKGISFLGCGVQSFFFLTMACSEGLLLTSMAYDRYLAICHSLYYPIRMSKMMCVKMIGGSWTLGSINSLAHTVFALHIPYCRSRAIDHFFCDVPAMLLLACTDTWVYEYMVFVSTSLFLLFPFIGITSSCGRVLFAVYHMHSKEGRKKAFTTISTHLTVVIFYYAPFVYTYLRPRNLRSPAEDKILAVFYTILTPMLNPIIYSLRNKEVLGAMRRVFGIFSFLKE
Procedure, shortened: as §1

OR2L2 (Homo sapiens) = target: T5, OR2L2 (Homo sapiens) (UniProt Q8NH16)
T5 sequence (whole entry): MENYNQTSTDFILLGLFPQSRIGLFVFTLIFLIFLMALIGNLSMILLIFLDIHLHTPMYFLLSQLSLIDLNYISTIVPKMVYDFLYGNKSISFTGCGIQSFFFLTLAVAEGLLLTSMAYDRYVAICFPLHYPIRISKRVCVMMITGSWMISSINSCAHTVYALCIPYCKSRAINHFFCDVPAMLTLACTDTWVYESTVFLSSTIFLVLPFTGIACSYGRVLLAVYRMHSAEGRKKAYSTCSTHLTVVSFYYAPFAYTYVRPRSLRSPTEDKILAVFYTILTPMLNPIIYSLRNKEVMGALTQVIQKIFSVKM
Procedure, shortened: as §1

OR2L3 = system: T6, OR2L3
T6 sequence (whole entry): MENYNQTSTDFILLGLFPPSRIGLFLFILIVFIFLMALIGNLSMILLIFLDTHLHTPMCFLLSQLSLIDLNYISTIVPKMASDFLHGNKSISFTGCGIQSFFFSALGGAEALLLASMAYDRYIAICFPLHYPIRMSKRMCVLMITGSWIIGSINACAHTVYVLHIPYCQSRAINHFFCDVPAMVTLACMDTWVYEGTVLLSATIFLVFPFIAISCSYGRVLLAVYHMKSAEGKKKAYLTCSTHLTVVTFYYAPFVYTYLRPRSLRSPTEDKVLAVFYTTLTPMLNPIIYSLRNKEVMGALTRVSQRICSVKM
Procedure, shortened: as §1

OR2L5 (Homo sapiens) = target: T7, OR2L5 (Homo sapiens) (UniProt Q8NG80)
T7 sequence (whole entry): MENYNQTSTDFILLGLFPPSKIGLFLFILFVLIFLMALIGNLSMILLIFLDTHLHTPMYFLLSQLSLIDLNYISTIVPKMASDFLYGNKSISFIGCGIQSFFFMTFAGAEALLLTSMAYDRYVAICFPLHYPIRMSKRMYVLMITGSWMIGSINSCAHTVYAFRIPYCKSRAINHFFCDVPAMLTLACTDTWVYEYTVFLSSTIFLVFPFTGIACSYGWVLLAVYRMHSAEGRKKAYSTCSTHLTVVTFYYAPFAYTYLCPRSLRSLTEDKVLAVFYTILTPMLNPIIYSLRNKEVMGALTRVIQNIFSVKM
Procedure, shortened: as §1

OR2L8 = system: T8, OR2L8
T8 sequence (whole entry): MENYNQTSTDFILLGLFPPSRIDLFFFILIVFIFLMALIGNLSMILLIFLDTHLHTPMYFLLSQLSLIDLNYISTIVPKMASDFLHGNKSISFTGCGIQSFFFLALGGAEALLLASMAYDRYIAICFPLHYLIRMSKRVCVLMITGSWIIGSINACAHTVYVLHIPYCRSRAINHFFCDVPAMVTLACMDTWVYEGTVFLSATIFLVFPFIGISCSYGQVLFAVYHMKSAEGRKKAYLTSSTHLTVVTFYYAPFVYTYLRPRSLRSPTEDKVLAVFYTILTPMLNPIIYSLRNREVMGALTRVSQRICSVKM
Procedure, shortened: as §1

OR2M2 = system: T9, OR2M2
T9 sequence (whole entry): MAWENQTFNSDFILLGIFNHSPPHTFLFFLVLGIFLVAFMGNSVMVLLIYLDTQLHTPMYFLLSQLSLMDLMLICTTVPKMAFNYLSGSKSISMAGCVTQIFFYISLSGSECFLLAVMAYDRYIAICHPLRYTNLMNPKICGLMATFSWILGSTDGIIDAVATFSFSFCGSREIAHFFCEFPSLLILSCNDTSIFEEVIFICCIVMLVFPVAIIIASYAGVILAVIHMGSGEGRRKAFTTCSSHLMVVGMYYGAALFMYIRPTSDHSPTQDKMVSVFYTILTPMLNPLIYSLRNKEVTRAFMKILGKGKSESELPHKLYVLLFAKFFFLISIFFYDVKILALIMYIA
Procedure, shortened: as §1

OR2M3 (Homo sapiens) = target: T10, OR2M3 (Homo sapiens) (UniProt Q8NG83)
T10 sequence (whole entry): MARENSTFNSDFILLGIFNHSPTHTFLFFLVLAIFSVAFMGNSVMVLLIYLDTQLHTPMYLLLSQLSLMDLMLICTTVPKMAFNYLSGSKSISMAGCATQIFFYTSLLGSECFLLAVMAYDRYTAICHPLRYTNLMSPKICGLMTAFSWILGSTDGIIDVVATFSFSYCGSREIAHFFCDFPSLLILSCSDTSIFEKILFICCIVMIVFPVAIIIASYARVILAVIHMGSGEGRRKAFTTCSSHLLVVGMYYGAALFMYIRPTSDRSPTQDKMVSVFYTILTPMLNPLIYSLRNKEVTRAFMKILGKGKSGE
Procedure, shortened: as §1
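Further: active if original authors judged signal statistically different from baseline.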

Row | Structure (SMILES) | odorant receptor agonist call (OR2J2) | odorant receptor agonist call (OR2J3 (Homo sapiens)) | odorant receptor agonist call (OR2K2 (Homo sapiens)) | odorant receptor agonist call (OR2L13 (Homo sapiens)) | odorant receptor agonist call (OR2L2 (Homo sapiens)) | odorant receptor agonist call (OR2L3) | odorant receptor agonist call (OR2L5 (Homo sapiens)) | odorant receptor agonist call (OR2L8) | odorant receptor agonist call (OR2M2) | odorant receptor agonist call (OR2M3 (Homo sapiens))
1 | CS | inactive | inactive | inactive | inactive | inactive | inactive | inactive | inactive | inactive | inactive
2 | CCOc1cc(C=O)ccc1O | – | – | – | – | – | – | – | – | – | inactive
3 | CCC(C)=O | inactive | active | inactive | inactive | inactive | inactive | inactive | inactive | inactive | inactive
4 | CCCCOC(C)=O | inactive | inactive | inactive | inactive | inactive | inactive | inactive | inactive | inactive | inactive
